# Screening data

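Mixed E. coli culture in which the wild-type GFP-labelled strain's fluorescence is read after 24 h, reported as change in activity. Percent-style change in GFP activity at 50 µM; values more negative mean stronger inhibition. Active needs green reporter loss at least twice the red loss with limited overall growth inhibition; inconclusive means no clear call.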

Common to all entries: at 50 µM (top of the series). Every entry below has the call inconclusive. These entries are mostly ones the record files as inconclusive; other results of the assay are not listed here.

Compound,activity change
CCCc1nc2ccc(Br)cn2c1Cc1cccc(Cl)c1,-13.27
CCc1ccc(CN2CCCC(CNS(=O)(=O)c3ccc(OC)cc3)C2)cc1 (stereo not shown),11.94
O=C(Nc1ccc(-c2nnc3n2CCCCC3)cc1)c1cc2ccccc2o1,-17.28
Nc1ccccc1C#CC(=O)c1ccccc1,-55.75
COC(=O)[C@@H](Cc1c[nH]c2ccccc12)NCc1cccc(B(O)O)c1,-4.609
CCC[N+]1(CC#CC(O)(c2ccccc2)C2CCCCC2)CCCCC1 (stereo not shown),-7.112
CCS(=O)(=O)N1CCN(c2ccc([N+](=O)[O-])c(NCC3CCCO3)c2)CC1 (stereo not shown),6.502
NC(=O)C1Cc2ccccc2CN1C(=O)c1cc(C2CC2)nn1-c1ccccc1 (stereo not shown),10.43
CCN(CC)S(=O)(=O)c1ccc(N2CCCC2)c(NC(=O)c2ccc([N+](=O)[O-])o2)c1,-26.21
CCCCc1ccc(S(=O)(=O)Nc2ccc(C)c(NS(C)(=O)=O)c2)cc1,-23.4
COc1ccc(C)cc1-n1c(=O)c2ccccc2c2ccccc2c1=O,-27.83
CCN(CC)S(=O)(=O)c1cccc(NC(=O)COc2ccc(F)cc2Br)c1,-40.89
Fc1ccc(-n2cc(CNCCc3cccnc3)c(-c3ccccc3Cl)n2)cc1,-28.77
CC(C)(C)c1cc(-c2n[nH]c(=S)n2-c2ccc(Cl)cc2)n[nH]1,16.12
Cc1onc(-c2c(Cl)cccc2Cl)c1C(=O)Nc1ccc(Cl)cn1,17.13
CC(NC(=O)C12CC3CC(C)(CC(C)(C3)C1)C2)c1ccncc1 (stereo not shown),28.28
CCN(CC)CCN(C(=O)c1ccc2c(c1)OCCO2)c1nc2cc(C)cc(C)c2s1,-30.89
CC1CCC2(CC1)SCC(=O)N2c1ccc(F)cc1 (stereo not shown),-4.993
CCN(CC)CC(=O)Nc1ccc(-c2ccc(NC(=O)CN(CC)CC)c(OC)c2)cc1OC,1.521
Cc1ccccc1CSc1nnc(-c2ccncc2)o1,5.258
CCN(C(=O)COC(=O)c1cc(-c2cccs2)nc2ccccc12)C1CCS(=O)(=O)C1 (stereo not shown),-17.11
C(=C(c1ccccc1)c1ccccc1)c1ccccn1,-7.643
O=C(O)CCC(=O)NCc1c(Cl)cccc1Sc1ccc(Cl)cc1,-30.71
COC(=O)[C@H](Cc1c[nH]c2ccccc12)NCc1cccc(B(O)O)c1,9.474
Cc1csc2c(N3CCC(C(=O)O)CC3)ncnc12,-11.88
COc1ccc(OC)c(-c2nnc3n2N=C(c2ccc(OC)c(OC)c2)CS3)c1,-22.8
O=C(NCc1ccc2c(c1)OCO2)C1CCC(=O)N1C1CCCCC1 (stereo not shown),44.84
CCOc1cc(/C=C(\CC(=O)O)c2nc3ccccc3s2)ccc1OC,-13.12
S=C1SCN(Cc2cccnc2)CN1Cc1ccccc1,-21.83
Cc1cc(Br)c2nc(-c3ccc(Cl)cc3)c(Cc3cccc(Cl)c3)n2c1,9.782
Cc1ccc2nc(SCC(=O)c3ccc4c(c3)OCO4)[nH]c2c1,-43.1
Cc1ccc(C#N)c(SCc2ccccc2F)n1,-28.48
CN(Cc1ccccc1)C(=O)c1[nH]cnc1C(=O)NCc1ccccc1,12.49
Cc1cccc(N2C(=O)CN(Cc3ccccc3)C2=S)c1,-26.88
CCn1c2ccccc2c2cc(NC(=O)c3ccco3)ccc21,-41.48
O=C1CCCN1c1ccc([N+](=O)[O-])cc1,8.284
O=C(c1cccs1)c1sccc1Cc1ccccc1,-30.49
Cc1cccc(CSCC(=O)N2CCN(S(=O)(=O)c3ccccc3C#N)CC2)c1,-5.648
CC(C)(C)CC(=O)Nc1ccccc1N1CCN(c2ccccc2)CC1,-13.49
CC(=O)NS(=O)(=O)c1ccc(NC(=O)COc2ccc(C(=O)c3ccccc3)cc2)cc1,-30.21
CCOc1ccc(OCC)c(NC(=O)CSc2nc3c(c(=O)n(C)c(=O)n3C)n2C(C)C)c1,-16.74
COc1ccc(-c2csc(NC(=O)c3ccoc3C)n2)cc1,-0.619
CN(C)C(CNS(=O)(=O)c1cc([N+](=O)[O-])ccc1Cl)c1ccco1 (stereo not shown),-0.759
CCN1C(=O)C(CC(=O)Nc2ccc(F)cc2)N(CCCN2CCN(c3ccc(F)cc3)CC2)C1=S (stereo not shown),-18.68
O=C1c2cccc(OCC(=O)N3CCCc4ccccc43)c2CCN1Cc1cccnc1,-26.98
COc1ccc(N(CCC(=O)O)S(=O)(=O)c2ccc(C)cc2C)cc1,-7.687
c1ccc2c(c1)nc(N1CCCCCC1)c1ccccc12,-31.05

2 of the entries, repeated:

| Compound | activity change |
|---|---|
| `CCN(C(=O)COC(=O)c1cc(-c2cccs2)nc2ccccc12)C1CCS(=O)(=O)C1` (stereo not shown) | -17.11 |
| `O=C(Nc1ccc(-c2nnc3n2CCCCC3)cc1)c1cc2ccccc2o1` | -17.28 |

Source: PubChem BioAssay AID977630 (Broad Institute, 2014).